According to US20220249819A1, “MICRONEEDLES, AND METHODS FOR THE MANUFACTURE THEREOF” (UNIVERSITY COLLEGE CORK - NATIONAL UNIVERSITY OF IRELAND, …, priority 2019, published 2022):
For at least one compound, name, drawing or mass did not settle the structure.

Tests used:
[1] = Ability to form a glassy, amorphous form following heat-melting and cooling (XRD); assay type: physicochemical
Experimental: As used herein, the term “meltable drug” or “meltable active pharmaceutical ingredient” refers to an active pharmaceutical ingredient that can be heat-melted to a molten form and has the following properties: • solid at 25° C.; • ability to form a glassy, amorphous form following heat-melting and cooling; and • the amorphous form having a glass transition temperature typically greater than 25° C. Examples of meltable drugs include; antifungals (for example, Itraconazole, Clotrimazole, Ketoconazole, Fluconazole, or derivatives or variants thereof), corticosteroids (for example, Estradiol, betamethasone valerate or derivatives or variants thereof), Anti-inflammatory drugs (for example, Celecoxib, Diclofenac, Sulindac, Indomethacin), Antimicrobials and Antibiotics (for example, Cefuroxime […], Chloramphenicol or derivatives or variants thereof), Cardiovascular and Antihypertensives (Carvedilol, Nifedipine or derivatives or variants thereof), Autonomic nervous system and Psychiatrics medications (Droperidol or derivatives or variants thereof), Antilipidemic and Cholesterol medications (Probucol, Simvastatin or derivatives or variants thereof), Gastrointestinal medications (Famotidine, Omeprazole or derivatives or variants thereof), Respiratory medications, Endocrine medications, Immunomodulators, Oncology drugs, Renal medications, Neurologic medications and anti-migraine (Zolmitriptan or derivatives or variants thereof). Typically, the meltable drug forms a stable amorphous form following melting and cooling; in this context, the formation of amorphous structure is confirmed by the XRD technique. X-ray powder Diffraction (XRD) is an analytical technique primarily used for phase identification of a crystalline material, in which the crystalline structure causes a beam of incident X-rays to diffract into many specific directions. It works best for materials that are crystalline or partially crystalline (i.e., that have periodic structural order) but is also used to study non-crystalline materials FIG. 3.

[2] = Glass transition temperature (Tg) of meltable drug in amorphous form by Differential Scanning calorimetry (DSC); assay type: physicochemical
From the text: The meltable active pharmaceutical ingredient forms a stable amorphous form following melting and cooling; in this context, the term “stable” as applied to the amorphous form means that the thermodynamic tendency of the active pharmaceutical ingredient to crystallize over one year is resisted. […] In this context, minimal degradation means that at least 90% of the active pharmaceutical ingredient retains its therapeutic activity following melting and cooling. […] Also, analysis of ^1H and ^13C NMR confirmed the chemical structure of ITZ, with molecular formula C35H38Cl2N8O4. […] Which indicating the chemical stability of both ITZ melts (FIG. 5). Differential Scanning calorimetry (DSC) may be employed to determine the glass transition temperature (Tg) of a meltable drug in amorphous form DSC utilizes a heat flow technique and compares the amount of heat supplied to the test sample and a similarly heated “reference” to determine transition points. Tg is typically calculated by using a half-height technique in the transition region FIG. 6.

| SMILES | GLASSY AND AMORPHOPUS FORM [1] | GLASS TRANSITION TEMP (TG ° C.) [2] |
| --- | --- | --- |
| CCC(C)n1ncn(-c2ccc(N3CCN(c4ccc(OCC5COC(Cn6cncn6)(c6ccc(Cl)cc6Cl)O5)cc4)CC3)cc2)c1=O (stereo not drawn) [Itraconazole] | YES | 49-63 °C |
| C[C@]12CC[C@@H]3c4ccc(O)cc4CC[C@H]3[C@@H]1CC[C@@H]2O [Estradiol] | YES | 85 °C |
| Cc1ccc(-c2cc(C(F)(F)F)nn2-c2ccc(S(N)(=O)=O)cc2)cc1 [Celecoxib] | YES | 58 °C |
